In paper PMC9425028:
No constants are given. Whether binding was seen depends on the method and setting. In cells and extracts the contact can be indirect. Some binding calls cover weakened binding; strength is not graded here.

Sequences of proteins named here, by UniProt entry; tags and fusion partners are left off. A change or cut given only in a name is not applied to a line headed by its entry. A line that says so, or that is headed by a name, gives the form on record, which may keep a tag or linker. Residues count along the entry.
wild-type recombinant mouse MASP-3 fused with PA-tag (WT rmMASP-3-PA) (P98064, form named): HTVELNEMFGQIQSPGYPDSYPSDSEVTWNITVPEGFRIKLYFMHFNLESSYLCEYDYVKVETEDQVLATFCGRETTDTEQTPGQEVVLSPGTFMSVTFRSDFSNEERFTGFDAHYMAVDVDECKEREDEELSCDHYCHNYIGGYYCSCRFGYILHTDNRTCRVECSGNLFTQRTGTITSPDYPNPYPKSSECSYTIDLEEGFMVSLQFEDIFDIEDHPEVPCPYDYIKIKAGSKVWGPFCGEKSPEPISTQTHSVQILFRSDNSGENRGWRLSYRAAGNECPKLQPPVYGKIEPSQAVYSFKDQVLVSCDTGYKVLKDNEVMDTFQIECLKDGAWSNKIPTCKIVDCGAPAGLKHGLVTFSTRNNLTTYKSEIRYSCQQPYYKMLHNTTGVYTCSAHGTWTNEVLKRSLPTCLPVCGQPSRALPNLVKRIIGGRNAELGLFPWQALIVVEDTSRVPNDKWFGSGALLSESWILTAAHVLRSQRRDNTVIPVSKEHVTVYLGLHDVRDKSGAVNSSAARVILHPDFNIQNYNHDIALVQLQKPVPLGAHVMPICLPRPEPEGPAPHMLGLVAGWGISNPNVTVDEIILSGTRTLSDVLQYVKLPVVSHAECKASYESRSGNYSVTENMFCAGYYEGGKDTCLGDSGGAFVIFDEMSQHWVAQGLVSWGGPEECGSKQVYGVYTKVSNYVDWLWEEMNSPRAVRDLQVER
UniProt P39039, residues 19-239: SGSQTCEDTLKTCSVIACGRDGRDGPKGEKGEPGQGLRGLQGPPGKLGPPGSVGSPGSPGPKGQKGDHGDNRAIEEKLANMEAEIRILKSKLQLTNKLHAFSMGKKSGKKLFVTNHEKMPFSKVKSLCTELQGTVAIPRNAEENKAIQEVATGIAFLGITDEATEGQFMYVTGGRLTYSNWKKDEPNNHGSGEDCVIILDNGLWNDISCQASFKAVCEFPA
UniProt P41317, residues 19-244: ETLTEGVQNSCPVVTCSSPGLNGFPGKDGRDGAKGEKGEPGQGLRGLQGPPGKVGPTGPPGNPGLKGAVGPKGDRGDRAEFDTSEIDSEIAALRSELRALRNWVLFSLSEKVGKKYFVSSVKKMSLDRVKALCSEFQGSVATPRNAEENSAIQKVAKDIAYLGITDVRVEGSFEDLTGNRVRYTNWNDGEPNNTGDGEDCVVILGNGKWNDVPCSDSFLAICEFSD
UniProt Q3SXB8, residues 27-272: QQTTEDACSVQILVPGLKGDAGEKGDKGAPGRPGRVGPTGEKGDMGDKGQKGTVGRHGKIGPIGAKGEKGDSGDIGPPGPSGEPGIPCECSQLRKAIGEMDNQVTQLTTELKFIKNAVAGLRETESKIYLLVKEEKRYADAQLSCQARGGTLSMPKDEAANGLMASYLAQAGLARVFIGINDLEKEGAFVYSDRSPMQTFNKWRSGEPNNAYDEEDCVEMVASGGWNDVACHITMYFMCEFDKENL

target: wild-type recombinant mouse MASP-3 fused with PA-tag (WT rmMASP-3-PA) (mouse) (UniProt P98064); assay: co-IP; 100 ug rmMASP-3-PA given intravenously to MASP-3-deficient C57BL/6J mice, serum taken after 3 h; immunoprecipitation with anti-PA tag antibody beads in TBS with 7 mM MgCl2 and 5 mM CaCl2, 4°C overnight, four washes; reducing SDS-PAGE and Western blot for each LP-PRM, band intensity normalised to rmMASP-3-PA; WT serum also precipitated in TBS with 7 mM MgCl2 and 10 mM EGTA as negative control (levels significantly reduced); only the target purified

| binding | Substance |
| --- | --- |
| binds | mouse mannose-binding lectin A (MBL-A) (from UniProt P39039 19-239) |
| binds | mouse mannose-binding lectin C (MBL-C) (from UniProt P41317 19-244) |
| binds | mouse collectin kidney 1 (CL-K1) (from UniProt Q3SXB8 27-272) |
